Data on 5 molecules can be found in article PMC11724473.

These are yes or no findings as the source states them, for the method shown. For part of these data: In cells and extracts the contact can be indirect. Some results given as binding are weak or reduced against the parent protein; the word gives no strength. For part of these data: Where a sequence is shown, tags or fusion partners need not be part of it.

For test [1], the target named is ADAR2 (FLAG-ADAR2 and HA-ADAR2 co-expressed in 293 T cells) (UniProt P78563). The test is described as follows: co-IP; two-step: 293 T cells with FLAG-ADAR2, HA-ADAR2 and SNORD113-3; precipitated with anti-FLAG antibody, eluted with FLAG peptide, then precipitated with anti-HA antibody.
For test [2] the target is unchanged. Briefly: co-IP; 293 T cells overexpressing FLAG-ADAR2 and HA-ADAR2, without or with overexpressed SNORD113-3; immunoprecipitation of HA-ADAR2.
The target of test [3] is ADAR2 (FLAG-ADAR2 and HA-ADAR2 in U251 cells) (UniProt P78563). The test is described as follows: co-IP; U251 cells, HA-ADAR2 coupled to FLAG-ADAR2, without or with SNORD113-3 overexpression.
Test [4] has as its target T1, EBF transcription factor 1 (EBF1), endogenous (human (endogenous in U251)) (UniProt Q9UH73).
T1 sequence: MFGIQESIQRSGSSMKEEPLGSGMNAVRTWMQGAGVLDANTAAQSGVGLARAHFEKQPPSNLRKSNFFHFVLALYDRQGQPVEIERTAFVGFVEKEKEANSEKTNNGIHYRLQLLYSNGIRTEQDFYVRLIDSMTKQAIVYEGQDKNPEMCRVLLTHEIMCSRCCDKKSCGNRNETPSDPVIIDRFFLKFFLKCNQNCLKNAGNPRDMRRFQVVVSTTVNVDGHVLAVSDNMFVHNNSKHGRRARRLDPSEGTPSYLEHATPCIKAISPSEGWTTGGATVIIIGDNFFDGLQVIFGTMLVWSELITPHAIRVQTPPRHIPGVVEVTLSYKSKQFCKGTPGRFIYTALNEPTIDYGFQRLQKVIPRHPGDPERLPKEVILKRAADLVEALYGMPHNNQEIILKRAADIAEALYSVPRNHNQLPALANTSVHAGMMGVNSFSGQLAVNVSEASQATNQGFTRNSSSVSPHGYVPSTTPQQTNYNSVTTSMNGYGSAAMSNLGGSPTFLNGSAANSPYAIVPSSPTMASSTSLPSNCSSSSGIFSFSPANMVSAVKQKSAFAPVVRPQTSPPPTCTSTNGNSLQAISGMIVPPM
Briefly: co-IP; lysates of U251 cells, endogenous proteins; IP and IB with PHKA2 and EBF1 antibodies.

For test [5], the target named is T2, GST-EBF1 (in 293 T cells) (UniProt Q9UH73).
T2 sequence: T1 sequence
Briefly: co-IP; lysates of 293 T cells transfected with FLAG-PHKA2 and GST-EBF1 plasmids; IP and IB with FLAG tag and GST tag antibodies.

In test [6] the target is T3, GST-EBF1, purified (UniProt Q9UH73).
T3 sequence: T1 sequence
Briefly: pull-down; GST pull-down: purified FLAG-PHKA2 incubated overnight at 4 °C with purified GST-EBF1 bound to resin; eluate analysed by SDS-PAGE and western blot; both purified.

Consider “ADAR2 (FLAG-ADAR2 and HA-ADAR2 co-expressed in 293 T cells) (from UniProt P78563 1-741) (enzyme)”, for which the binding result in test [1] and in test [2] was “binds” each time.

On to “ADAR2 (FLAG-ADAR2 and HA-ADAR2 in U251 cells) (from UniProt P78563 1-741) (enzyme)”, for which, in test [3], the binding result is reported as “binds”.

B1: Phosphorylase kinase regulatory subunit alpha 2 (PHKA2), endogenous (protein, UniProt P46019 1-1235)
chain: MRSRSNSGVRLDGYARLVQQTILCYQNPVTGLLSASHEQKDAWVRDNIYSILAVWGLGMAYRKNADRDEDKAKAYELEQNVVKLMRGLLQCMMRQVAKVEKFKHTQSTKDSLHAKYNTATCGTVVGDDQWGHLQVDATSLFLLFLAQMTASGLRIIFTLDEVAFIQNLVFYIEAAYKVADYGMWERGDKTNQGIPELNASSVGMAKAALEAIDELDLFGAHGGRKSVIHVLPDEVEHCQSILFSMLPRASTSKEIDAGLLSIISFPAFAVEDVNLVNVTKNEIISKLQGRYGCCRFLRDGYKTPREDPNRLHYDPAELKLFENIECEWPVFWTYFIIDGVFSGDAVQVQEYREALEGILIRGKNGIRLVPELYAVPPNKVDEEYKNPHTVDRVPMGKVPHLWGQSLYILSSLLAEGFLAAGEIDPLNRRFSTSVKPDVVVQVTVLAENNHIKDLLRKHGVNVQSIADIHPIQVQPGRILSHIYAKLGRNKNMNLSGRPYRHIGVLGTSKLYVIRNQIFTFTPQFTDQHHFYLALDNEMIVEMLRIELAYLCTCWRMTGRPTLTFPISRTMLTNDGSDIHSAVLSTIRKLEDGYFGGARVKLGNLSEFLTTSFYTYLTFLDPDCDEKLFDNASEGTFSPDSDSDLVGYLEDTCNQESQDELDHYINHLLQSTSLRSYLPPLCKNTEDRHVFSAIHSTRDILSVMAKAKGLEVPFVPMTLPTKVLSAHRKSLNLVDSPQPLLEKVPESDFQWPRDDHGDVDCEKLVEQLKDCSNLQDQADILYILYVIKGPSWDTNLSGQHGVTVQNLLGELYGKAGLNQEWGLIRYISGLLRKKVEVLAEACTDLLSHQKQLTVGLPPEPREKIISAPLPPEELTKLIYEASGQDISIAVLTQEIVVYLAMYVRAQPSLFVEMLRLRIGLIIQVMATELARSLNCSGEEASESLMNLSPFDMKNLLHHILSGKEFGVERSVRPIHSSTSSPTISIHEVGHTGVTKTERSGINRLRSEMKQMTRRFSADEQFFSVGQAASSSAHSSKSARSSTPSSPTGTSSSDSGGHHIGWGERQGQWLRRRRLDGAINRVPVGFYQRVWKILQKCHGLSIDGYVLPSSTTREMTPHEIKFAVHVESVLNRVPQPEYRQLLVEAIMVLTLLSDTEMTSIGGIIHVDQIVQMASQLFLQDQVSIGAMDTLEKDQATGICHFFYDSAPSGAYGTMTYLTRAVASYLQELLPNSGCQMQ
B1: the binding result in test [4] is on record as “binds”.

B2: FLAG-PHKA2 (in 293 T cells) (protein, UniProt P46019 1-1235)
chain: B1 chain
Regarding B2, the binding entry in test [5] was “binds”.

B3: FLAG-PHKA2, purified (protein, UniProt P46019 1-1235)
chain: B1 chain
B3: the binding entry in test [6] is reported as “binds”.
